The results in this text go back to patent US5589337A (priority 1995, dated 1996).

Structures can show the parent of a compound that is named as a salt.

One assay concerns topA promoter. Kind of assay: topA promoter-lacZ induction (preferred kit, β-galactosidase). As to conditions: Escherichia coli, read-out: Fold Induction, topA.
The test system of a further assay is zwf promoter. Briefly: zwf promoter-lacZ induction (preferred kit, β-galactosidase). As to conditions: Escherichia coli, read-out: Fold Induction, zwf.
For the next assay, the system named is aniG promoter. Kind of assay: aniG promoter-lacZ induction (preferred kit, β-galactosidase). As to conditions: Salmonella enterica, read-out: Fold Induction, aniG.

As for `CN(C)CCN(Cc1cccs1)c1ccccn1` [Methapyrilene HCl], the fold induction at 2000 µg/mL with topA promoter came out at 1.5; in the assay on zwf promoter it was 2.7. For the same molecule, the fold induction at 400 µg/mL with aniG promoter was found to be 2.3.
